Part of at least one peptide drawing is inferred or uncertain, most often the ends. Some results were stated once for a whole list of compounds, not compound by compound. No end group written: not given here.
Test system: HIV-1IIIB
Settings: for EC50: >100 μg/ml defined as HIV inactive
Protocol: (§1) Anti-HIV cytopathic effect inhibition assays were conducted as described (Buckheit et al. (1995) Antimicrob. Agents Chemother., 39:2718-2727). In brief, serially diluted peptides were added to a 96-well round bottom microtiter plate in triplicate. CEM-SS cells at a concentration of 2.5×10^3 cells per well and HIV-1IIIB at the appropriate pre-determined titer were sequentially added to the microtiter plate. The cultures were incubated at 5% CO2/37° C. for six days. Following the incubation, the microtiter plates were stained with XTT tetrazolium dye to evaluate the efficacy and toxicity of the test compound(s).
as §1, with “Cytopathic Effect (CPE) Inhibition Assay: The CPE assay was performed” for “Anti-HIV cytopathic effect inhibition assays were conducted”, “as previously” for “as”, “Briefly,” for “In brief,”, “compound was” for “peptides were”

Compound: LLGDLLRKSKEKIGKEFKRIVQR-NH2 [LL-23]
- anti-HIV activity in words: inactive against HIV-1

Compound: KRIVQRIKDFLRNLVPRTES [KR-20]
- anti-HIV activity in words: inactive against HIV-1

Compound: H-GLADFLNKAVGKVVDFVKS-NH2 [Desertcolin 1, reference compound]
- EC50: > 100 mg/L

Compound: GMASKAGAIAGKIAKVALKAL-NH2 [PGLa, reference compound]
- EC50: > 100 mg/L

Compound: CC[C@@H](C)[C@@H](NC(=O)[C@H](CCCNC(=N)N)NC(=O)[C@H](CCC(N)=O)NC(=O)[C@@H](NC(=O)[C@@H](NC(=O)[C@H](CCCNC(=N)N)NC(=O)[C@H](CCCCN)NC(=O)[C@H](Cc1ccccc1)NC(=O)CN)[C@@H](C)CC)C(C)C)C(=O)N[C@@H](CCCCN)C(=O)N[C@@H](CC(=O)O)C(=O)N[C@@H](Cc1ccccc1)C(=O)N[C@@H](CC(C)C)C(=O)N[C@@H](CCCNC(=N)N)C(=O)N[C@@H](CC(N)=O)C(=O)N[C@@H](CC(C)C)C(=O)N[C@H](C(N)=O)C(C)C [GF-17d1]
- anti-HIV activity in words: inactive

Compound: GLKKLLGKLLKKLGKLLLK [GLK-19]
- anti-HIV activity in words: no activity against HIV

Compound: GIFDKLAKEISIW [Peptide B5]
- anti-HIV activity in words: nontoxic against HIV

Compound: RPKHPIKHQGLPQEVLNENLLRF [Isracidin, reference compound]
- EC50: > 100 mg/L
